Results deposited as PubChem BioAssay AID1224828 (NIAID, 2016).
The whole screen tested about 17,000 reagents; shown is an unselected part. Of all reagents, 762 (4.5%) are marked active. 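Active calls include both raised and lowered p65 entry, mostly lowered; wells with fewer than 50 cells lack a z-score.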 Raw values vary from plate to plate and are shown uncorrected. Unmarked entries are inactive. No sequences are given here.

Test: 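Knock-downs that increase or decrease LPS-induced p65 nuclear translocation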 (primary screen)
Cell system: mouse RAW264.7 G9 macrophage reporter cells (GFP-p65, Tnf promoter-mCherry)
Reagents: siRNA pool against mouse genes, 100 nM
Time to read-out: 2 days siRNA transfection, then 40 min LPS before fixation
Challenge: LPS (Salmonella minnesota R595) at 10 ng/ml
Detection: 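Imaged p65 nuclear translocation ratio, normalised to the plate median, converted to robust z-scores and averaged across two replicates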
Direction: p65 translocation robust z-score: higher = more nuclear NF-kappaB p65 after LPS than the plate median; nuclear/cytoplasmic p65 ratio: higher = more nuclear NF-kappaB p65
Call rule: 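Called active when z exceeds 3.3 or falls under -1.56 (median of Tlr4 controls), giving activity score of at least 50; no calls for control wells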
Meaning of the calls: active = hit (p65 shift raised or lowered); inactive = no clear change

| target gene | PubChem SID | p65 translocation robust z-score | nuclear/cytoplasmic p65 ratio, rep 1 | nuclear/cytoplasmic p65 ratio, rep 2 | low cell count flag |
| --- | --- | --- | --- | --- | --- |
| Slc30a5 | SID315473705 | – | 2.83 | 1.26 | fewer than 50 cells per well; well left out of scoring |
| Klk11 (kallikrein related-peptidase 11) | SID315471602 | 1.47 | 1.54 | 1.49 | enough cells to score |
| Glcci1 (glucocorticoid induced transcript 1) | SID315477236 | 1.74 | 1.79 | 1.75 | enough cells to score |
| Rpa1 (replication protein A1) | SID315473487 | 2.65 | 1.75 | 1.53 | enough cells to score |
| Serpini1 (serine (or cysteine) peptidase inhibitor, clade I, member 1) | SID315469413 | 0.33 | 1.62 | 1.58 | enough cells to score |
| Trmu (tRNA 5-methylaminomethyl-2-thiouridylate methyltransferase) | SID315474425 | 2.62 | 1.84 | 1.43 | enough cells to score |
| Tmem230 (transmembrane protein 230) | SID315474096 | – | 1.22 | 1.51 | fewer than 50 cells per well; well left out of scoring |
| Trp73 (transformation related protein 73) | SID315469834 | 0.75 | 1.63 | 1.59 | enough cells to score |
| Cfap20dc (CFAP20 domain containing) | SID315474971 | – | 1.43 | 1.63 | fewer than 50 cells per well; well left out of scoring |
| Pitpnm1 (phosphatidylinositol transfer protein, membrane-associated 1) | SID315468530 | 0.6 | 1.52 | 1.23 | enough cells to score |
| Med10 (mediator complex subunit 10) | SID315470671 | -0.24 | 1.54 | 1.75 | enough cells to score |
| Hsp90b1 (heat shock protein 90, beta (Grp94), member 1) | SID315469814 | -0.96 | 1.34 | 1.4 | enough cells to score |
| Or8i2 (olfactory receptor family 8 subfamily I member 2) | SID315480411 | -0.45 | 1.57 | 1.52 | enough cells to score |
| Pdcd2 (programmed cell death 2) | SID315468426 | -0.23 | 1.45 | 1.35 | enough cells to score |
| Mif4gd (MIF4G domain containing) | SID315473864 | – | 1.4 | 1.1 | fewer than 50 cells per well; well left out of scoring |
| Pla2g2d (phospholipase A2, group IID) | SID315468563 | -0.43 | 1.41 | 1.38 | enough cells to score |
| Gdf1 (growth differentiation factor 1) | SID315466868 | -2.04 (active) | 1.29 | 1.18 | enough cells to score |
| Sox10 (SRY (sex determining region Y)-box 10) | SID315469381 | 0.06 | 1.56 | 1.56 | enough cells to score |
| Rps16 (ribosomal protein S16) | SID315469038 | – | 1.62 | 1.74 | fewer than 50 cells per well; well left out of scoring |
| Nfrkb (nuclear factor related to kappa B binding protein) | SID315479230 | 0.65 | 1.8 | 1.62 | enough cells to score |
| Ppp6r3 (protein phosphatase 6, regulatory subunit 3) | SID315470934 | 0.45 | 1.72 | 1.53 | enough cells to score |
| Eefsec (eukaryotic elongation factor, selenocysteine-tRNA-specific) | SID315472165 | -1.51 | 1.47 | 1.18 | enough cells to score |
| Sparc (secreted acidic cysteine rich glycoprotein) | SID315469402 | -0.89 | 1.36 | 1.48 | enough cells to score |
| Adh5 (alcohol dehydrogenase 5 (class III), chi polypeptide) | SID315465310 | -0.27 | 1.61 | 1.55 | enough cells to score |
| Or2n1b (olfactory receptor family 2 subfamily N member 1B) | SID315480471 | -1.42 | 1.48 | 1.16 | enough cells to score |
| Wdfy2 (WD repeat and FYVE domain containing 2) | SID315480796 | – | 1.65 | 0.977 | fewer than 50 cells per well; well left out of scoring |
| Clca3a2 (chloride channel accessory 3A2) | SID315475726 | 0.9 | 1.61 | 2.05 | enough cells to score |
| Arfgap1 (ARF GTPase activating protein 1) | SID315478682 | 1.73 | 1.81 | 1.95 | enough cells to score |
| Tmem184a (transmembrane protein 184a) | SID315478932 | 0.47 | 1.64 | 1.93 | enough cells to score |
| Inhbb (inhibin beta-B) | SID315467476 | 0.02 | 1.45 | 1.41 | enough cells to score |
| Pla2g3 (phospholipase A2, group III) | SID315479356 | 0.5 | 1.78 | 1.6 | enough cells to score |
| Stab1 (stabilin 1) | SID315477393 | 0.08 | 1.4 | 1.26 | enough cells to score |
| Zfp385c (zinc finger protein 385C) | SID315481008 | – | 1.25 | 1.23 | fewer than 50 cells per well; well left out of scoring |
| Grhpr (glyoxylate reductase/hydroxypyruvate reductase) | SID315475267 | -0.2 | 1.43 | 1.33 | enough cells to score |
| Gm9801 (predicted gene 9801) | SID315481603 | – | 1.28 | 1.65 | fewer than 50 cells per well; well left out of scoring |
| Oard1 (O-acyl-ADP-ribose deacylase 1) | SID315476564 | 0.49 | 1.67 | 1.77 | enough cells to score |
| Pus3 (pseudouridine synthase 3) | SID315472802 | 0.19 | 1.47 | 1.49 | enough cells to score |
| Ropn1 (ropporin, rhophilin associated protein 1) | SID315475295 | 0.86 | 1.54 | 1.31 | enough cells to score |
| Gsdmd (gasdermin D) | SID315473733 | -0.2 | 1.33 | 1.44 | enough cells to score |
| Il6ra (interleukin 6 receptor, alpha) | SID315467461 | -0.1 | 1.42 | 1.4 | enough cells to score |
| Asb12 (ankyrin repeat and SOCS box-containing 12) | SID315474037 | 1.4 | 1.91 | 1.61 | enough cells to score |
| Fgb (fibrinogen beta chain) | SID315476876 | -1.85 (active) | 1.24 | 1.13 | enough cells to score |
| Vamp3 (vesicle-associated membrane protein 3) | SID315469979 | -1.03 | 1.19 | 1.17 | enough cells to score |
| Gsdmc (gasdermin C) | SID315475833 | -0.38 | 1.73 | 1.53 | enough cells to score |
| Scml2 (Scm polycomb group protein like 2) | SID315476645 | 0.38 | 1.46 | 1.27 | enough cells to score |
| Krt33a (keratin 33A) | SID315474364 | 0.2 | 1.33 | 1.39 | enough cells to score |
| Mx1 (MX dynamin-like GTPase 1) | SID315468041 | 0.39 | 1.57 | 1.33 | enough cells to score |
| Lcn9 (lipocalin 9) | SID315475502 | 0.22 | 1.5 | 1.53 | enough cells to score |
| Gpr149 (G protein-coupled receptor 149) | SID315478701 | 1.43 | 1.65 | 1.85 | enough cells to score |
| Rrp1b (ribosomal RNA processing 1B) | SID315474554 | – | 1.31 | 1.18 | fewer than 50 cells per well; well left out of scoring |
| Erfe (erythroferrone) | SID315478559 | – | 1.03 | 1.16 | fewer than 50 cells per well; well left out of scoring |
| Il2ra (interleukin 2 receptor, alpha chain) | SID315467451 | 0.46 | 1.49 | 1.48 | enough cells to score |
| Krt34 (keratin 34) | SID315467692 | -0.46 | 1.47 | 1.39 | enough cells to score |
| Smtn (smoothelin) | SID315470714 | 0.6 | 1.67 | 1.6 | enough cells to score |
| Tex10 (testis expressed gene 10) | SID315480862 | -1 | 1.19 | 1.13 | enough cells to score |
| Or4f15 (olfactory receptor family 4 subfamily F member 15) | SID315480121 | 2.35 | 1.94 | 1.75 | enough cells to score |
| Rab12 (RAB12, member RAS oncogene family) | SID315468846 | – | 1.53 | 1.24 | fewer than 50 cells per well; well left out of scoring |
| Zc3h15 (zinc finger CCCH-type containing 15) | SID315473718 | -0.73 | 1.33 | 1.36 | enough cells to score |
| Gbx2 (gastrulation brain homeobox 2) | SID315466847 | 2.07 | 1.71 | 1.64 | enough cells to score |

5 entries from above, reduced to “low cell count flag”.
Fgb (fibrinogen beta chain) [SID315476876]: enough cells to score (active)
Vamp3 (vesicle-associated membrane protein 3) [SID315469979]: enough cells to score
Gsdmc (gasdermin C) [SID315475833]: enough cells to score
Scml2 (Scm polycomb group protein like 2) [SID315476645]: enough cells to score
Krt33a (keratin 33A) [SID315474364]: enough cells to score
